The test system of this series is inner side of the upper arm. Kind of series: Adhesion ability of the ester compound, evaluated by twenty panels. Type of series: in vivo. As to conditions: for Adhesion ability: 0.1 g ester compound applied to the inner side of the upper arm, twenty panels; for adhesion to the skin / adhesion ability (in words): ester compound.

In the case of “pentaerythrityl tetraisostearate [Com. Prep. Ex. 3]”, the Adhesion ability entry is on record as “M (from 6 to 9 panels evaluated the compound as “good adhesion ability”)” and the “adhesion to the skin / adhesion ability (in words)” value was “not good”.

As to `CCCCC(CC)C(=O)OCC(COC(=O)C(CC)CCCC)(COC(=O)C(CC)CCCC)COC(=O)C(CC)CCCC` (stereo not shown) [Com. Prep. Ex. 2, pentaerythrityl tetraethylhexanoate], the Adhesion ability entry is “B (not more than five panels evaluated the cosmetic as “good adhesion ability”)” and the “adhesion to the skin / adhesion ability (in words)” value is “poor”.

These data come from patent US8367084B2, “Oily base for a cosmetic and cosmetic comprising the same” (Kokyu Alcohol Kogyo Co., Ltd., priority 2009, dated 2013).
